PubChem BioAssay AID1508597, Cure First – 2020
Shown is an unselected part of the about 2,100 reagents, under one of the conditions tested. 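Calls flag viability under 80% in either arm, not effects specific to rucaparib; the reference for percent is not stated.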 A number with no mark means an inactive call. A reagent listed more than once was tested more than once; the source does not tell the runs apart. No sequences are given here. Not given: the 100% reference.

- Screen: 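Survival screen with siRNA in ovarian cancer cells derived from patients, with or without rucaparib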 (primary screen)
- Cells: human ovarian carcinoma lines grown from tumours: OCI-P5x (papillary serous) and OCI-C5x (clear cell)
- Reagent: siRNA pool against human genes, 1.25 pmol siRNA per well
- Timing: 72 h or 96 h, depending on the cell culture
- Challenge: rucaparib 20 µM (about IC30) or vehicle, present until read-out
- Rucaparib or vehicle: Rucaparib
- Cell line: OCI-P5x (serous)
- Measured: 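Luminescent ATP-based viability assay read 72 or 96 h after transfection, depending on culture, given as normalised percent viability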
- Direction: viability, normalised: higher = more viable cells remaining
- Hit rule: 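Active when normalised viability falls below 80 percent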
- Calls: active = viability under 80%; inactive = viability 80% or more

gene symbol | technical replicate | viability, normalised (%)
AIRE (GeneID 326) | 1 | 55.7 (active)
AIRE (GeneID 326) | 2 | 74 (active)
AIRE (GeneID 326) | 3 | 55.2 (active)
DDX21 (GeneID 9188) | 1 | 71.7 (active)
DDX21 (GeneID 9188) | 1 | 52.7 (active)
DDX21 (GeneID 9188) | 2 | 74.7 (active)
DDX21 (GeneID 9188) | 2 | 82.3
DDX21 (GeneID 9188) | 3 | 74.3 (active)
DDX21 (GeneID 9188) | 3 | 68.6 (active)
TSTD1 (GeneID 100131187) | 1 | 62.8 (active)
TSTD1 (GeneID 100131187) | 2 | 56.7 (active)
TSTD1 (GeneID 100131187) | 3 | 67.3 (active)
BRIP1 (GeneID 83990) | 1 | 86.1
BRIP1 (GeneID 83990) | 1 | 89.3
BRIP1 (GeneID 83990) | 2 | 87.5
BRIP1 (GeneID 83990) | 2 | 88.4
BRIP1 (GeneID 83990) | 3 | 88.4
BRIP1 (GeneID 83990) | 3 | 81.9
MNAT1 (GeneID 4331) | 1 | 101
MNAT1 (GeneID 4331) | 2 | 112
MNAT1 (GeneID 4331) | 3 | 90.4
POLI (GeneID 11201) | 1 | 84
POLI (GeneID 11201) | 2 | 102
POLI (GeneID 11201) | 3 | 92.8

Continued, starting with the last 3 of the part before.
gene symbol | technical replicate | viability, normalised (%)
POLI (GeneID 11201) | 1 | 84
POLI (GeneID 11201) | 2 | 102
POLI (GeneID 11201) | 3 | 92.8
HKDC1 (GeneID 80201) | 1 | 54.1 (active)
HKDC1 (GeneID 80201) | 2 | 55.3 (active)
HKDC1 (GeneID 80201) | 3 | 58 (active)
GJA10 (GeneID 84694) | 1 | 67 (active)
GJA10 (GeneID 84694) | 2 | 61.8 (active)
GJA10 (GeneID 84694) | 3 | 53.7 (active)
USP16 (GeneID 10600) | 1 | 62 (active)
USP16 (GeneID 10600) | 2 | 43.1 (active)
USP16 (GeneID 10600) | 3 | 55.1 (active)
CSK (GeneID 1445) | 1 | 67 (active)
CSK (GeneID 1445) | 2 | 37.1 (active)
CSK (GeneID 1445) | 3 | 24.7 (active)
ULK1 (GeneID 8408) | 1 | 62.9 (active)
ULK1 (GeneID 8408) | 2 | 85.1
ULK1 (GeneID 8408) | 3 | 50.5 (active)
AK2 (GeneID 204) | 1 | 91.5
AK2 (GeneID 204) | 2 | 91.4
AK2 (GeneID 204) | 3 | 81.4
SIRT1 (GeneID 23411) | 1 | 99.7
SIRT1 (GeneID 23411) | 1 | 38 (active)
SIRT1 (GeneID 23411) | 2 | 122
SIRT1 (GeneID 23411) | 2 | 50.1 (active)
SIRT1 (GeneID 23411) | 3 | 46 (active)
SIRT1 (GeneID 23411) | 3 | 92.3
MAK (GeneID 4117) | 1 | 94.2
MAK (GeneID 4117) | 2 | 79 (active)
MAK (GeneID 4117) | 3 | 86.2
PTPRC (GeneID 5788) | 1 | 42.7 (active)
PTPRC (GeneID 5788) | 2 | 34.1 (active)
PTPRC (GeneID 5788) | 3 | 43.8 (active)
NME1-NME2 (GeneID 654364) | 1 | 107
NME1-NME2 (GeneID 654364) | 2 | 80.1
NME1-NME2 (GeneID 654364) | 3 | 107
